Values of other authors in patent US20110008461A1 (priority 2008, published 2011).
Certain results were filed several times, with different values. The other results are left out here. There may be further records. Results that share an entry differ, and nothing given here explains why; dose, time, organism, isomer or construct need not be as stated for each record.

The chains behind the UniProt entries cited, without tags or fusion partners. Residues count along the entry.
UniProt P21642, 34-641 limits assumed: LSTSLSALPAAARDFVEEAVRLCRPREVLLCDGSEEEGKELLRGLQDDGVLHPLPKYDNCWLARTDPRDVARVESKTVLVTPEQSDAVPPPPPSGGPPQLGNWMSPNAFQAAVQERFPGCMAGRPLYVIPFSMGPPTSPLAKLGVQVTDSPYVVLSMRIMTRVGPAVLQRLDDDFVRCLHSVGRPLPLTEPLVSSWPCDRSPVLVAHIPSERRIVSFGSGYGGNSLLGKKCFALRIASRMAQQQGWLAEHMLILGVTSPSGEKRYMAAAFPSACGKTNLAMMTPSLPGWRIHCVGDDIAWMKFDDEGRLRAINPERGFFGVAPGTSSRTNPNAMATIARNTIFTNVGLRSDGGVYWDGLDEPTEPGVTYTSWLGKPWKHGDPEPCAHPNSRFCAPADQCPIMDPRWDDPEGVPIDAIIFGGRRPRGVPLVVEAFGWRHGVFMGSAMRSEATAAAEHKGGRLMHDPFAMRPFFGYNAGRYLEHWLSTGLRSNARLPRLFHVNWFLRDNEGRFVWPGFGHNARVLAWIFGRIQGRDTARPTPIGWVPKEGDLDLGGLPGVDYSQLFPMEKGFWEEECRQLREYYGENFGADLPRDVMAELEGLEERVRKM

Target: avian liver mPEPCK (Gallus gallus, UniProt P21642)
Conditions: previously reported; cited from earlier work

O=C(O)C(=O)CS(=O)(=O)O [β-sulfopyruvate]
Ki: 19 µM to 138 µM and 7 µM
